In patent US6166205A, “2-Aryl-4-(1-[4-heteroaryl]piperazin-1-yl)methylimidazoles: dopamine . D.sub4 receptor subtype ligands” (Neurogen Corporation, priority 1999, dated 2000):
For at least one compound, name, drawing or mass did not settle the structure.

Molecular target: D4 receptor
Assay: dopamine D4 receptor binding assay (3H-YM 09151-2)
Design: species or system African Green monkey
Details: 0.5 nM 3H-YM 09151-2; COS cells with recombinantly produced D4 receptors; Table 2: rat striatal homogenates
Method: Assays For D2 And D4 Receptor Binding Activity
Pellets of COS cells containing recombinantly produced D2 or D4 receptors from African Green monkey are used for the assays. A sample is homogenized in 100 volumes (w/vol) of 0.05 M Tris HCl buffer at 4° C. and pH 7.4 and then centrifuged at 30,000×g and resuspended and rehomogenized. The sample is again centrifuged at 30,000×g and the final tissue sample is frozen until use. The tissue is resuspended 1:20 (wt/vol) in 0.05 M Tris HCl buffer containing 100 mM NaCl.
Incubations are carried out at […] and contain 0.4 ml of tissue sample, 0.5 nM ^3 H-YM 09151-2(Nemonapride, cis-5-Chloro-2-methoxy-4-(methylamino)-N-(2-methyl-2-(phenylmethyl)-3-pyrrolidinyl)benzamide) and the compound of interest in a total incubation of 1.0 ml. Nonspecific binding is defined as that binding found in the presence of […] spiperone; without further additions, nonspecific binding is less than 20% of total binding. The binding characteristics of representative compounds of this invention for the D2 and D4 receptor subtypes are shown in Table 2 for rat striatal homogenates.

| Compound | Ki [nM] |
| --- | --- |
| c1ccc(-c2ncc(CN3CCN(c4ncc5ccccc5n4)CC3)[nH]2)cc1 [Compound 4a, 2-{4-[(2-phenylimidazol-5-yl)methyl]piperazinyl}quinazoline] | 3 |
| c1ccc(-c2ncc(CN3CCN(c4cnc5ccccc5n4)CC3)[nH]2)cc1 [Compound 5, 2-{4-[(2-phenylimidazol-5-yl)methyl]piperazinyl}quinoxaline] | 8 |
